Measured values taken from US20080299599A1, “FLUORESCENT PROTEINS FOR MONITORING INTRACELLULAR SUPEROXIDE PRODUCTION” (priority 2006, published 2008).

Assay: Spectral analysis of purified cpYFP: in vitro redox calibration and response to ROS and metabolites
Assay type: biochemical
Protocol: cpYFP cDNA (807 bp) was cloned into a prokaryotic expression vector (pRSET) and transferred into E. Coli cell line (BL21(DE3)LysS) for large-scale protein expression. In vitro redox calibration of cpYFP fluorescence was carried out using methods described previously (Hanson et al., J. Biol. Chem., 279: 13044-13053, 2004). Briefly, under an inert environment, purified cpYFP protein (1 μM) was incubated with either 10 mM reduced DTT or 1 mM aldrithiol for at least 3 hours, allowing for solution equilibration. Reduced DTT was removed from the solution allowing measurement of cpYFP response to various ROS and metabolites. The calibration solution contained (in mM): HEPES 75, KCl 125, and EDTA 1, pH=8.0. Emission and excitation spectra of reduced and oxidized cpYFP in the presence of designated reagents were obtained with a spectrofluorimeter (Model: CM1T101, HORIBA Jobin Yvon, Inc.) filled with nitrogen gas.
Using cpYFP purified from an E. coli expression system, excitation and emission fluorescence spectra were measured in response to reducing (10 mM reduced DTT) and oxidizing manipulations (1 mM aldrithiol). […] Extensive in vitro experiments were performed to determine the selectivity of cpYFP among physiologically relevant oxidants and metabolites. […] The cpYFP signal, however, was insensitive to hydrogen peroxide (H2O2) over a wide range of concentrations (0.1-10 mM) (FIG. 1c) and peroxynitrite (FIG. 2), and was decreased by hydroxyl radicals (.OH) (FIG. 1c) and nitric oxide (FIG. 2).

In the case of “cpYFP: circularly permuted yellow fluorescent protein; superoxide probe of SEQ ID NO. 1, pericam without calmodulin and M13 domains”, the emission maximum wavelength is reported as 515 nm, the “superoxide insensitive excitation wavelength (isobestic point)” value is reported as 405 nm and the “superoxide sensitive excitation maximum wavelength” value is reported as 488 nm.
